PubChem BioAssay AID624150, Cancer Research UK Cambridge, 2012

- Test: 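Find chromatin regulators that change keratinocyte differentiation across several stimuli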 (primary screen)
- Cell system: primary human epidermal keratinocytes
- Reagents: siRNA pool against human genes, 1-2 µM siRNA in 20 µl nucleofection
- Time to read-out: 72 h after transfection plus 48 h differentiation (about 5 days)
- Conditions: five arms for 48 h: vehicle, AG1478 10 µM, BMP2/7 200 ng/ml, both together, or 10% serum
- Measurement: 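Transglutaminase 1 immunostaining divided by DNA staining in each well, background removed, then z-scored versus every test siRNA on that plate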
- Scale: z-score, vehicle and z-score, AG1478 10 µM and z-score, BMP2/7 200 ng/ml and z-score, AG1478 with BMP2/7 and z-score, 10% serum: higher = more differentiation marker per cell
Shown is a random part of 331 deposited reagents. 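Each arm had three replicate z-scores, but only the first replicate is printed; higher values mean more differentiation marker per cell.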

The opening 4 entries as a preview:
| gene | PubChem SID | z-score, vehicle | z-score, AG1478 10 µM | z-score, BMP2/7 200 ng/ml | z-score, AG1478 with BMP2/7 | z-score, 10% serum |
| --- | --- | --- | --- | --- | --- | --- |
| SIRT4 (sirtuin 4) | SID135635885 | 0.13 | 1.06 | 0.303 | 0.926 | 1.07 |
| RBBP7 (RB binding protein 7, chromatin remodeling factor) | SID135635728 | 0.216 | -0.412 | -0.305 | -0.781 | 0.0775 |
| PRDM5 (PR/SET domain 5) | SID135635861 | -0.378 | 0.664 | 1.03 | 0.591 | 0.879 |
| SMYD2 (SET and MYND domain containing 2) | SID135635862 | 0.213 | 0.437 | 1.62 | -0.12 | 0.391 |

The list itself, from the start:
| gene | PubChem SID | z-score, vehicle | z-score, AG1478 10 µM | z-score, BMP2/7 200 ng/ml | z-score, AG1478 with BMP2/7 | z-score, 10% serum |
| --- | --- | --- | --- | --- | --- | --- |
| SIRT4 (sirtuin 4) | SID135635885 | 0.13 | 1.06 | 0.303 | 0.926 | 1.07 |
| RBBP7 (RB binding protein 7, chromatin remodeling factor) | SID135635728 | 0.216 | -0.412 | -0.305 | -0.781 | 0.0775 |
| PRDM5 (PR/SET domain 5) | SID135635861 | -0.378 | 0.664 | 1.03 | 0.591 | 0.879 |
| SMYD2 (SET and MYND domain containing 2) | SID135635862 | 0.213 | 0.437 | 1.62 | -0.12 | 0.391 |
| NSD3 (nuclear receptor binding SET domain protein 3) | SID135635877 | -2.17 | -2.62 | -1.75 | -2.34 | -4.17 |
| PHF11 (PHD finger protein 11) | SID135635792 | -0.687 | -0.68 | -0.0309 | 0.0599 | -0.289 |
| KMT5C (lysine methyltransferase 5C) | SID135635841 | 0.0923 | 0.4 | -0.265 | 0.473 | 0.162 |
| HINFP (histone H4 transcription factor) | SID135635738 | -1.49 | -0.0212 | 0.29 | 0.00892 | -0.225 |
| BRD3 (bromodomain containing 3) | SID135635600 | 0.0107 | 0.23 | -0.345 | 0.604 | 0.844 |
| PRMT7 (protein arginine methyltransferase 7) | SID135635820 | -0.721 | -1.11 | -0.385 | -0.922 | -0.762 |
| PRMT3 (protein arginine methyltransferase 3) | SID135635814 | -0.488 | -0.0836 | -1.11 | -1.02 | -0.398 |
| ZCWPW1 (zinc finger CW-type and PWWP domain containing 1) | SID135635830 | -0.254 | 0.11 | -1.12 | -0.636 | -0.406 |
| SMYD1 (SET and MYND domain containing 1) | SID135635843 | -0.463 | 0.194 | -0.568 | 0.422 | 0.703 |
| MRM3 (mitochondrial rRNA methyltransferase 3) | SID135635659 | 0.292 | -0.269 | -0.444 | 0.196 | 1.52 |
| BRD1 (bromodomain containing 1) | SID135635620 | 1.52 | 1.24 | 1.14 | 0.845 | 0.587 |
| GATAD2A (GATA zinc finger domain containing 2A) | SID135635731 | 2.6 | 0.0333 | -0.616 | 2.3 | 0.837 |
| PSIP1 (PC4 and SRSF1 interacting protein 1) | SID135635821 | -0.48 | -0.438 | -0.626 | -0.547 | -0.662 |
| KAT8 (lysine acetyltransferase 8) | SID135635676 | 0.401 | 0.909 | 0.99 | 0.507 | 0.436 |
| PRDM8 (PR/SET domain 8) | SID135635859 | -0.719 | -0.971 | -0.074 | -0.244 | -1.46 |
| PRDM13 (PR/SET domain 13) | SID135635851 | -0.0283 | 0.239 | -0.0978 | 0.28 | 0.745 |
| SCML2 (Scm polycomb group protein like 2) | SID135635751 | 0.616 | -0.544 | -0.411 | -0.592 | 0.0892 |
| BAZ2A (bromodomain adjacent to zinc finger domain 2A) | SID135635619 | 0.876 | 1.53 | 1.24 | 0.569 | 0.761 |
| HDGFL1 (HDGF like 1) | SID135635826 | 0.0527 | 0.0971 | -0.454 | 0.51 | -0.261 |
| L3MBTL3 (L3MBTL histone methyl-lysine binding protein 3) | SID135635749 | -0.723 | -0.967 | -1.05 | -1.08 | -0.946 |
| KDM2A (lysine demethylase 2A) | SID135635718 | -0.516 | -0.911 | -0.224 | 0.105 | 0.0618 |
| SP100 (SP100 nuclear body protein) | SID135635604 | -0.591 | 0.476 | -0.12 | 0.552 | 0.625 |
| SIRT7 (sirtuin 7) | SID135635882 | -0.976 | -1.3 | -1.18 | -1.03 | 0.816 |
| KDM1A (lysine demethylase 1A) | SID135635719 | 0.687 | 2.49 | 0.417 | 0.316 | 0.541 |
| PRDM7 (PR/SET domain 7) | SID135635860 | -1.01 | -0.459 | -0.618 | -0.499 | 0.0958 |
| L3MBTL2 (L3MBTL histone methyl-lysine binding protein 2) | SID135635747 | 1.07 | -0.372 | 0.236 | 0.169 | -1.81 |
| PHF24 (PHD finger protein 24) | SID135635795 | 0.803 | 0.224 | 0.702 | 0.481 | 0.548 |
| PRDM9 (PR/SET domain 9) | SID135635858 | -1.1 | 0.969 | 1.35 | 0.737 | 0.522 |
| BAHD1 (bromo adjacent homology domain containing 1) | SID135635614 | 1.05 | 0.728 | 0.118 | 0.445 | 0.67 |
| KAT6A (lysine acetyltransferase 6A) | SID135635678 | 0.715 | -0.464 | -0.746 | -0.244 | -0.671 |
